Results as given in US20190100591A1 (ITEOS BELGIUM, published 2019).
Results are given in words; binding and its absence hold for the method and conditions named. Some results given as binding are weak or reduced against the parent protein; the word gives no strength.

T1: human TIGIT expressed on cells (human, UniProt Q495A1 22-244)
T1 construct: whole, on cells; on Jurkat E6.1 cells transduced with human TIGIT, on Promega TIGIT effector cells or on human primary T cells; the cell is named under assay; also called hTIGIT; Jurkat-hTIGIT
T1 sequence (looked up): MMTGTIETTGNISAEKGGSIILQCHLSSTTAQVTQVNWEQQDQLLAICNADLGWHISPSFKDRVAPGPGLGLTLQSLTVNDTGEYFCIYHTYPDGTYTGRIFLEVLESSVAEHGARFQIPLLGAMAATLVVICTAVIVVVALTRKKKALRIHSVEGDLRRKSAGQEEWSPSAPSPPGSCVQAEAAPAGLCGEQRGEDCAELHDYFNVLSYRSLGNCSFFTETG


Key:
[1] = molecular target: T1, human TIGIT expressed on cells; assay: flow cytometry on human PBMC of healthy donors, MFI on gated TIGIT+CD8+ T cells, detection with anti-human Ig (Fc gamma specific)-PE
[2] = molecular target: T1, human TIGIT expressed on cells; assay: flow cytometry on PBMC of cancer patients, MFI on gated TIGIT+CD8+ T cells, detection with anti-human Ig (Fc gamma specific)-PE
[3] = molecular target: T1, human TIGIT expressed on cells; assay: flow cytometry, Jurkat-hTIGIT
[4] = molecular target: T1, human TIGIT expressed on cells; assay: flow cytometry on Jurkat-hTIGIT, detection with anti-human Ig (Fc gamma specific)-PE
[5] = molecular target: T1, human TIGIT expressed on cells; assay: flow cytometry competition on Jurkat-hTIGIT: cells incubated with the antibody, washed, then CD155-His (15 ug/ml) detected with anti-His-PE; blocked ligand CD155-His
[6] = molecular target: cynomolgus TIGIT on primary CD8+ T cells (Macaca fascicularis (cynomolgus)); assay: flow cytometry on stimulated cynomolgus PBMC, gated on CD69+CD8+ T cells, detection with anti-human Ig (Fc gamma specific)-PE

Row | binding [1] | binding [2] | binding [3] | binding [4] | binding [5] | binding [6] | Binder
1 | binds | binds | binds | binds | binds | – | anti-TIGIT antibody TIG1 (antibody, human IgG1, V domains shown) VH: DVQLVESGGGLVQPGGSRKLSCAASGFTFSNFGMHWVRQAPEKGLEWVAFISSGSSSIYYADTVKGRFTISRDNPKNTLFLQMTSLRSEDTAMYYCARMRLDYYAMDYWGQGTSVTVSS VL: DVQITQSPSYLAASPGETITINCRASKSISKYLAWYQEKPGKTNKLLIYSGSTLQSGIPSRFSGSGSGTDFTLTISSLEPEDFAMYYCQQHNEYPWTFGGGTKLEIK
2 | – | – | – | – | – | binds | anti-TIGIT antibody clone 29520 (antibody, V domains shown) VH: QVQLVESGGGLVQPGRSLRLSCAASGFTFRDYAMHWVRQAPGKGLEWVSGITWNSGLIGYADSVKGRFTISRDNAKNSLYLQMNSLRAEDTALYYCAKPVPRLRGLDVWGQGTMVTVSS VL: DIQLTQSPSSVSASVGDRVTITCRASQGISSWLAWYQQKPGKAPKLLIYGASSLQSGVPSRFSGSGSGTDFTLTISSLQPEDFATYYCQQAFYLPWTFGGGTKVEIK
3 | – | – | – | – | – | binds | anti-TIGIT antibody clone 29527 (antibody, V domains shown) VH: QVQLVESGGGVVQPGRSLRLSCAASGFTFSSSYMHWVRQAPGKGLEWVAVIGADGSNKYYADSVEGRFTISRDNSKNTLYLQMNSLRAEDTALYYCAKPVPRRRGLDVWGQGTMVTVSS VL: DIQLTQSPSSVSASVGDRVTITCRASQGISSWLAWYQQKPGKAPKLLIYGASSLQSGVPSRFSGSGSGTDFTLTISSLQPEDFATYYCQQAFYLPWTFGGGTKVEIK
